Values from PubChem BioAssay AID1259308 (NCATS, 2017).

Screen: 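Knock-downs that increase output of a recombinant reporter protein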 (primary screen)
Cells: human HEK293 embryonic kidney cells stably expressing firefly luciferase (HEK-CMV-Luc2-Hygro)
Reagents: single siRNA against human genes, 0.8 pmol siRNA per well
Timing: 72 h
Read-out: 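Luciferase light (ONE-Glo) measured on one replicate plate set and viability (CellTiter-Glo) on the other, scaled to a negative control siRNA, with robust z-scores and luciferase per cell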
Scale: total luciferase, z-score: higher = more reporter protein produced
Call rule: 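An siRNA counts as active if its total luciferase robust z-score exceeds 3; genes with two or more such siRNAs out of three were retested with fresh siRNAs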
Meaning of the calls: active = raised luciferase; inactive = no rise
The deposit covers about 59,000 reagents; shown is a random part of them. About 1,510 of all reagents (2.6%) were called active. 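Calls use total luciferase alone and ignore viability, so some active siRNAs may act by altering cell number.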 Entries without a mark were called inactive. Not all columns of the deposit are shown. Reagent sequences are not shown.

WDTC1 [SID160735299] scored total luciferase, z-score -0.413.
With knock-down of WDTC1 [SID160735300], the record shows total luciferase, z-score -0.373.
For WDTC1 [SID160735301], the values are total luciferase, z-score -0.567.
FAM13A [SID160726025] scored total luciferase, z-score -0.00865.
Depletion of FAM13A [SID160726031] came out at: total luciferase, z-score -1.02.
Silencing of FAM13A [SID160726039] came out at: total luciferase, z-score -2.13.
Silencing of PDE6D [SID160714004] gave: total luciferase, z-score 2.58.
With knock-down of PDE6D [SID160714005], the screen gave total luciferase, z-score 0.287.
With knock-down of PDE6D [SID160714006] the results were total luciferase, z-score 0.981.
Depletion of RDH10 [SID160759519] gave: total luciferase, z-score 1.28.
After knock-down of RDH10 [SID160759521] the results were total luciferase, z-score 1.02.
Against RDH10 [SID160759522], the values are total luciferase, z-score 0.225.
Silencing of NR2C1 [SID160718308] resulted in: total luciferase, z-score -0.394.
NR2C1 [SID160718309] showed total luciferase, z-score -0.389.
For NR2C1 [SID160718310] the deposit lists total luciferase, z-score -1.
AP3B1 [SID160720303] scored total luciferase, z-score -0.0408.
Against AP3B1 [SID160720304], the values are total luciferase, z-score -0.4.
For AP3B1 [SID160720305], the entry reads total luciferase, z-score 0.899.
After knock-down of MAS1L [SID160755444], the record shows total luciferase, z-score -0.52.
With knock-down of MAS1L [SID160755445], the record shows total luciferase, z-score -0.568.
With knock-down of MAS1L [SID160755446], the screen gave total luciferase, z-score 1.87.
ITIH1 [SID160776025] gave total luciferase, z-score -0.968.
Silencing of ITIH1 [SID160776026] resulted in: total luciferase, z-score -0.754.
For ITIH1 [SID160776027], the values are total luciferase, z-score 0.0461.
Knock-down of DCAF12L1 [SID160757661] gave: total luciferase, z-score 0.495.
For DCAF12L1 [SID160757662] the deposit lists total luciferase, z-score -1.07.
For DCAF12L1 [SID160757663], the values are total luciferase, z-score 0.258.
MMP13 [SID160777357] scored total luciferase, z-score -0.323.
Silencing of MMP13 [SID160777358] gave: total luciferase, z-score 0.169.
Silencing of MMP13 [SID160777359] came out at: total luciferase, z-score -0.741.
PLRG1 [SID160714495] scored total luciferase, z-score 1.92.
After knock-down of PLRG1 [SID160714496], the screen gave total luciferase, z-score 1.58.
PLRG1 [SID160714497] showed total luciferase, z-score 3.45 (active).
